About 6,200 (1.8%) of roughly 340,000 compounds were called active. The inconclusive results got no clear call from the source; some entries with a clear call stand among them for comparison. Calls follow the shape of the dose curve; as a rule, active = well fitted activation curve with a large enough effect; inconclusive = small, poorly fitted or top-dose-only effect; inactive = no such curve, though single readings can be large or run the other way. Potencies of inconclusive entries are doubtful fits and often do not repeat.
Experiment: A quantitative high throughput screen for small molecules that induce DNA re-replication in SW480 colon adenocarcinoma cells. Also: nearly all actives have a fitted effect of over 55% in size.
Details: Hoechst DNA content imaging, 48 h; series mostly up to 46.1 µM
In short: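 First, 250 cells per well were seeded. Next, compound or vehicle (23 nL) was pinned in, plates sat 48 hr at 37 C. Finally Hoechst was added for 40 min before fluorescence scanning.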
For Cc1ccc(CN=C(N)Nc2nc(C)cc(C)n2)cc1, the Potency was active: 14.6 µM.
For Cc1ccc(C2=CC(=O)C[C@H](c3ccc4c(c3)OCO4)C2)cc1, the Potency was inconclusive: 23.1 µM [activator, partial curve, poor fit].
With CCN(CC)CCNCc1ccc(Br)cc1OCC(=O)NCc1ccccc1 the Potency was inconclusive: 14.6 µM [activator, partial curve, poor fit].
With Cn1c2ccccc2c2cc(/C=N/NC(=O)c3ccc(N)cc3)ccc21 the Potency was inconclusive: 29.1 µM [activator, single point].
With O=C(Cc1cccc(NC(=O)C2CCN(C(=O)C3CCCC3)CC2)c1)Nc1cccc(C(=O)N2CCCCC2)c1 the Potency was inconclusive: 6.51 µM [activator, single point].
In the case of CCC(C)c1ccccc1NC(=O)CN1CCN(C/C=C/c2ccccc2)CC1 (stereo not drawn), the Potency is reported as “inactive”.
In the case of COc1ccc(S(=O)(=O)N2CCN(C(=O)c3ccc([N+](=O)[O-])o3)CC2)cc1, the Potency is reported as inconclusive: 20.6 µM [activator, single point].
In the case of O=C(CSC1=NCCN1)NC(c1ccccc1)c1ccccc1, the Potency is reported as inconclusive: 29.1 µM [activator, single point].
In the case of O=c1cc(-c2ccccc2)[nH]n1-c1ccccc1, the Potency is reported as inconclusive: 16.4 µM [activator, single point].
With CSCCC(=O)NC1CC(C)(C)Cc2c1cnn2-c1ccccc1C (stereo not drawn) the Potency was inconclusive: 29.1 µM [activator, single point].
With CC(C)CN1CCN(Cc2cc3ccccc3[nH]2)CC1CCO (stereo not drawn) the Potency was inconclusive: 16.4 µM [activator, single point].
In the case of COc1ccc(C(=O)/C=C/c2ccc(N(C)C)cc2)c(OC)c1, the Potency is reported as inconclusive: 18.4 µM [activator, single point].
For COc1ccc(OC)c(-c2csc(NC(=O)c3ccccc3F)n2)c1, the Potency was inconclusive: 0.0291 µM [activator, full curve].
For COC(=O)CN1C(=O)C2(C(C#N)=C(N)Oc3c2c(C)nn3-c2ccccc2)c2ccccc21 (stereo not drawn), the Potency was inconclusive: 23.1 µM [activator, single point].
In the case of CC(C)c1nnc(NC(=O)COc2ccc3c(c2)OCO3)s1, the Potency is reported as inconclusive: 18.4 µM [activator, single point].
For COc1ccc(OC)c(S(=O)(=O)N2CCC(C(=O)Nc3cccc(C(F)(F)F)c3)CC2)c1, the Potency was “inactive”.
For CCCCc1cc(=O)oc2cc(OC(C)C(=O)NCC3CCC(C(=O)O)CC3)c(Cl)cc12 (stereo not drawn), the Potency was inconclusive: 8.2 µM [activator, partial curve, poor fit].
For Cc1ccc(-n2nnnc2-c2cnoc2-c2cccc(F)c2)cc1, the Potency was “inactive”.
With CCOC(=O)C1CCN(C(=O)c2cc(S(=O)(=O)N3CCOCC3)ccc2C)CC1 the Potency was “inactive”.
In the case of O=C(CSc1nncn1-c1ccccc1)NC1CCCc2ccccc21 (stereo not drawn), the Potency is reported as inconclusive: 4.61 µM [activator, partial curve, poor fit].
For O=C(CC1Sc2ncnn2C1=O)Nc1ccc(Br)cc1 (stereo not drawn), the Potency was inconclusive: 29.1 µM [activator, single point].
For CN1CCN(c2nc(NCc3ccco3)nc(N)c2[N+](=O)[O-])CC1, the Potency was active: 13 µM.
For Cc1ccc(Nc2c([N+](=O)[O-])cc(C(=O)N3CC(=O)Nc4ccccc43)cc2[N+](=O)[O-])c(C)c1, the Potency was inconclusive: 20.6 µM [activator, single point].
With Cn1nc(C(=O)Nc2cccc(C(F)(F)F)c2)c2ccccc2c1=O the Potency was “inactive”.
For COc1cccc(Nc2ccc([N+](=O)[O-])c3nonc23)c1, the Potency was inconclusive: 18.4 µM [activator, partial curve, poor fit].
For CC12CCC(C(=O)NCc3ccccc3Cl)(C(Br)C1=O)C2(C)C (stereo not drawn), the Potency was inconclusive: 16.4 µM [activator, single point].
For COc1cccc(NC(=O)CN(C)C(=O)CC2CCCCC2)c1, the Potency was inconclusive: 0.517 µM [activator, full curve, poor fit].
In the case of O=C(/C=C/c1ccc(Cl)cc1Cl)c1nc2ccccc2[nH]1, the Potency is reported as inconclusive: 16.4 µM [activator, single point].
For COc1ccc(-c2sc3ccccc3c2C#CC2(O)CCCCC2)cc1, the Potency was inconclusive: 6.51 µM [activator, single point].
With CC1(C)CC(NC(=O)c2ccc(-c3ccc([N+](=O)[O-])cc3)o2)CC(C)(C)N1 the Potency was inconclusive: 29.1 µM [activator, single point].
In the case of O=C(C1CCC1)N1CCN(c2ccccc2)CC1, the Potency is reported as inconclusive: 23.1 µM [activator, single point].
In the case of CSc1nc2ccc(S(=O)(=O)NC3CCCCC3)cc2s1, the Potency is reported as “inactive”.
For O=C(O)CCCc1ccc2c(c1)CCc1ccccc1-2, the Potency was “inactive”.
For CCCn1cc(SCC(=O)Nc2nnc(C)s2)c2ccccc21, the Potency was “inactive”.
For COCCCN(C(=O)CSCC(=O)Nc1ccc(C)cc1)c1c(N)n(Cc2ccccc2)c(=O)[nH]c1=O, the Potency was “inactive”.
In the case of Cc1ccc(C(=O)NS(=O)(=O)c2ccc(C)cc2)cc1, the Potency is reported as “inactive”.
For COc1ccccc1NS(=O)(=O)c1cc(N/C(=N\S(=O)(=O)c2ccccc2)c2ccc(F)cc2)ccc1Cl, the Potency was inconclusive: 14.6 µM [activator, partial curve, poor fit].
With CCCC(C(=O)NC1CCCC1)N(Cc1ccccc1)C(=O)c1snc(C(N)=O)c1N (stereo not drawn) the Potency was inconclusive: 29.1 µM [activator, single point].
In the case of CCOc1ccc(NC(=O)N2CCN(S(C)(=O)=O)CC2)cc1, the Potency is reported as inconclusive: 0.231 µM [activator, full curve, poor fit].
In the case of CCOC(=O)c1ccc(Nc2cc3ccccc3c(=O)[nH]2)cc1, the Potency is reported as inconclusive: 20.6 µM [activator, partial curve, poor fit].
In the case of COc1cc(/C=C/C(=O)OCC(=O)Nc2ccccc2Cl)cc(OC)c1OC, the Potency is reported as inconclusive: 20.6 µM [activator, single point].
In the case of O=C(Nc1cc(Cl)ccc1-n1cncn1)c1ccc([N+](=O)[O-])s1, the Potency is reported as active: 23.1 µM.
For CCCC12C(=O)C(C)(C(c3ccccc3)=C1c1ccccc1)C1C(=O)N(c3ccc(C)cc3)C(=O)C12 (stereo not drawn), the Potency was inconclusive: 18.4 µM [activator, partial curve, poor fit].

Source: PubChem BioAssay AID624297 (National Center for Advancing Translational Sciences (NCATS), 2012)
Potency is read from the fitted curve at half-maximal effect.
